From the supplement of paper PMC7666118
This is one part of the list.

Sequences of proteins named here, by UniProt entry; tags and fusion partners are left off. A change or cut given only in a name is not applied to a line headed by its entry.
UniProt Q16512: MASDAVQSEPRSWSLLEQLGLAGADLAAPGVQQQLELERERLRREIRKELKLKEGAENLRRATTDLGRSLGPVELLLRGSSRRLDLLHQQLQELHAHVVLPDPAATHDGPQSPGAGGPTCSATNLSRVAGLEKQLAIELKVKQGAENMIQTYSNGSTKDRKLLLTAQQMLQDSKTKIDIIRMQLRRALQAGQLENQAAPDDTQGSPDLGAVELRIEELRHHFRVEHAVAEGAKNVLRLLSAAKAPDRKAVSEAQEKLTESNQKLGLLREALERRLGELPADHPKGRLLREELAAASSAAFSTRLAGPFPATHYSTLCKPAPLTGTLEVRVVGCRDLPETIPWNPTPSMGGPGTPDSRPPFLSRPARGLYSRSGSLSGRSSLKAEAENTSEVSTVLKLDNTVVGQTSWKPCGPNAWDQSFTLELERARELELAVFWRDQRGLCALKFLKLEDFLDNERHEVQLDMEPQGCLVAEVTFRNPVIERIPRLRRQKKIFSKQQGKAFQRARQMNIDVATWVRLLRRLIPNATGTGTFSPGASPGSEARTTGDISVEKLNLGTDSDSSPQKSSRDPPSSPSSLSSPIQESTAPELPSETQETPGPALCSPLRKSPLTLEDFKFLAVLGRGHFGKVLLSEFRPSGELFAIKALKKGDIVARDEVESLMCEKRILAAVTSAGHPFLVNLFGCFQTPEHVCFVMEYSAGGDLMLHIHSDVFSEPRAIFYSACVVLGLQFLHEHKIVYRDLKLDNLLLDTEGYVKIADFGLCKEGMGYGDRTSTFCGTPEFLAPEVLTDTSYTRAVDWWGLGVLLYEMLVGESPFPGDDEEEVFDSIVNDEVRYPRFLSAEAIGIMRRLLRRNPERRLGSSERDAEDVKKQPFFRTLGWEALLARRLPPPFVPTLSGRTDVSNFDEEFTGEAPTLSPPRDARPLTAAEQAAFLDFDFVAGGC
UniProt O43157, whole entry: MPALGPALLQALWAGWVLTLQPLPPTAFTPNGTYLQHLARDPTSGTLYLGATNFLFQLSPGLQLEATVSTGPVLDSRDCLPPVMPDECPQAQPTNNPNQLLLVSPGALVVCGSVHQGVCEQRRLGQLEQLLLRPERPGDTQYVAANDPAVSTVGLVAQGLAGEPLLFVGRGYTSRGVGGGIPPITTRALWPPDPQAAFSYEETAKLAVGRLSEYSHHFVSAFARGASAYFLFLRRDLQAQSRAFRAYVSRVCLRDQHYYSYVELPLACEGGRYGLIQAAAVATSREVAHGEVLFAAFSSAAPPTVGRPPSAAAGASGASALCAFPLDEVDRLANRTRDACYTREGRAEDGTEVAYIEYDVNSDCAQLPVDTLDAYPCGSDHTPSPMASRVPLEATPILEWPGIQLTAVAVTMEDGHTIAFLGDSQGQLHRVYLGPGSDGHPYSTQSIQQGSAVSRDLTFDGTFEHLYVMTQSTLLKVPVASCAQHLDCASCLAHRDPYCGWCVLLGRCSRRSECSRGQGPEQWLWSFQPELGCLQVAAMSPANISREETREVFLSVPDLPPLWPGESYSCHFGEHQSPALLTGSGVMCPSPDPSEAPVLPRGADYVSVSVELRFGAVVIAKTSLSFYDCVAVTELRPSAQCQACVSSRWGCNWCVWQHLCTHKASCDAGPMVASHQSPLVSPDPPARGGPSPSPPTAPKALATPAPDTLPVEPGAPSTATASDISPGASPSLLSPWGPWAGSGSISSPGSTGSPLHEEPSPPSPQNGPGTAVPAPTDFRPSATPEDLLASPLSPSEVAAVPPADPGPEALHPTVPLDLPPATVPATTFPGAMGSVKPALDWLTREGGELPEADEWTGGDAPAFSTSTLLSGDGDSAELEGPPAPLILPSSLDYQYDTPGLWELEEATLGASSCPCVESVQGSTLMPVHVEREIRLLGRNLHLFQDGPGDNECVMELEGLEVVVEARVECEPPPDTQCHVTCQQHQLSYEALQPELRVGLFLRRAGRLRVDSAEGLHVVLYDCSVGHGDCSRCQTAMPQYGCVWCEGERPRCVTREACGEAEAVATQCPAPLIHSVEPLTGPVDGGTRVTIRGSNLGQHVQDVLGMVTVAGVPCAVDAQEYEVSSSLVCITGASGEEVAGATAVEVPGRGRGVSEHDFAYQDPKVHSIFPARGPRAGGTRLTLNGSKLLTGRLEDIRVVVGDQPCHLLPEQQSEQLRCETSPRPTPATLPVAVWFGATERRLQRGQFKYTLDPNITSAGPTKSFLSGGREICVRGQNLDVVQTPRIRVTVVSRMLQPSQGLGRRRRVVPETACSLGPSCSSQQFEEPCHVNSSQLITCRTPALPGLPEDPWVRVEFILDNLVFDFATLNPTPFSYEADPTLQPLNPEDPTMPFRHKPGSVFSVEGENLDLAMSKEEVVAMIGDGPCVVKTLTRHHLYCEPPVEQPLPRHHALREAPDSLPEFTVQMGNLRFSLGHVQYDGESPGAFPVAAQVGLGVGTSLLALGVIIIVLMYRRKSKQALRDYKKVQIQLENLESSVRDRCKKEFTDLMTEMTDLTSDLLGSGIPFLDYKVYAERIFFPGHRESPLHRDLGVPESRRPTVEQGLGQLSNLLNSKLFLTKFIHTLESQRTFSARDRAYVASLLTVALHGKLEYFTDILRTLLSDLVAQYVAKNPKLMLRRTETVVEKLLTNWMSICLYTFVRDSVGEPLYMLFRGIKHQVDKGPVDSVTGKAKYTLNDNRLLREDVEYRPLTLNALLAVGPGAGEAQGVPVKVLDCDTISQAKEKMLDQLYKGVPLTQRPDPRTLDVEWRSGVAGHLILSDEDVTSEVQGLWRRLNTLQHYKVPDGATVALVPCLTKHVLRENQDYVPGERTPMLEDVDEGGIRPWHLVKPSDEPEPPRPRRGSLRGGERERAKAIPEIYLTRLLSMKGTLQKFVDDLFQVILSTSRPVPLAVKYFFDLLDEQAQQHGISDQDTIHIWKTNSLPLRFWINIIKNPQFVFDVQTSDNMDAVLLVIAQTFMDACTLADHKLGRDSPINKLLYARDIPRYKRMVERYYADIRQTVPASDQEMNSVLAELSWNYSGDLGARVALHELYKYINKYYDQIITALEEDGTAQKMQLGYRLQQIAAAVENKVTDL
UniProt O14802: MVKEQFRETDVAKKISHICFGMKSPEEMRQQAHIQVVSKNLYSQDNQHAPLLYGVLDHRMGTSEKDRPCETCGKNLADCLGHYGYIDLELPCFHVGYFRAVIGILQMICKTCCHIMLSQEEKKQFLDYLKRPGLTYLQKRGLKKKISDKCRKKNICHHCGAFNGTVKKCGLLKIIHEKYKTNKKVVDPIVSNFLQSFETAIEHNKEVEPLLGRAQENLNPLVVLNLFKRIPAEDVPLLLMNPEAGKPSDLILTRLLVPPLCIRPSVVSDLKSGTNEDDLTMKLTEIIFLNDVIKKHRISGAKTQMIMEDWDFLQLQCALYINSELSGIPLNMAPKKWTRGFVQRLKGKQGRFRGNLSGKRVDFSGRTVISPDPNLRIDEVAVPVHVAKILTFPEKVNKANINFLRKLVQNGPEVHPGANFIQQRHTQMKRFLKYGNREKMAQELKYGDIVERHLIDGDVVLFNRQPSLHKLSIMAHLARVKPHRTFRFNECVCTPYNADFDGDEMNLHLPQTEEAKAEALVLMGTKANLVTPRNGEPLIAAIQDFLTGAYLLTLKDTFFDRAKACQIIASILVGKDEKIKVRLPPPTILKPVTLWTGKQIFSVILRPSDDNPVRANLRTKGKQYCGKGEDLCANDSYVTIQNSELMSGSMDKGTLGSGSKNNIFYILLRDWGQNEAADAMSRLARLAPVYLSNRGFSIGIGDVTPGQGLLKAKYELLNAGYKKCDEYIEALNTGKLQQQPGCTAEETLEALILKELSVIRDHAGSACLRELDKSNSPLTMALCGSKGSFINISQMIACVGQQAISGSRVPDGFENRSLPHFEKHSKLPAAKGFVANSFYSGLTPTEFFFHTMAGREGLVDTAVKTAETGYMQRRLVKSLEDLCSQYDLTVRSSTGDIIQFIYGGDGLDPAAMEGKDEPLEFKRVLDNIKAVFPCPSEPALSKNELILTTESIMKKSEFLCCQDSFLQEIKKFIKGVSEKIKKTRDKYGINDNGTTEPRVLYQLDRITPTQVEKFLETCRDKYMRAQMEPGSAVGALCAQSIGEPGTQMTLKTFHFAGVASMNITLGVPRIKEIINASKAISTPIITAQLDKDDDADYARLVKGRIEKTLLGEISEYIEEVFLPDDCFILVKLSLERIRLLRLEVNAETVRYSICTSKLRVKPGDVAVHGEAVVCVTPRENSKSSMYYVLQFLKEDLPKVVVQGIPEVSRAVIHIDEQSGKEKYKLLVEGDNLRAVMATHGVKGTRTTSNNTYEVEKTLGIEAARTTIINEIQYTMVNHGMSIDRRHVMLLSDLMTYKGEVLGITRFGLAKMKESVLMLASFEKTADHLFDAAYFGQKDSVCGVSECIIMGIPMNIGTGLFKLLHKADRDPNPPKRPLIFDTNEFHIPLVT
UniProt Q9GZS1, whole entry: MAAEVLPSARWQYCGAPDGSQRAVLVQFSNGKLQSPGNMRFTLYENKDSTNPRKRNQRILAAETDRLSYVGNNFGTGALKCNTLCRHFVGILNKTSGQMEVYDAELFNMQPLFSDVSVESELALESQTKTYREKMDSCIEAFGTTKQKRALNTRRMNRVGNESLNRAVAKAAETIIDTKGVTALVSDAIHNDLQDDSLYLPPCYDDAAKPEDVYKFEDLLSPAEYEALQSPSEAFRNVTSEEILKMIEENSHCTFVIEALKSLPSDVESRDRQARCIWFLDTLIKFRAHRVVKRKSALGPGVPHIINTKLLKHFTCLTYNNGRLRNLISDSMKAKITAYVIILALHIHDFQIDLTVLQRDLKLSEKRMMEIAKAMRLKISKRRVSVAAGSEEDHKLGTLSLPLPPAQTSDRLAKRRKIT
UniProt P78356: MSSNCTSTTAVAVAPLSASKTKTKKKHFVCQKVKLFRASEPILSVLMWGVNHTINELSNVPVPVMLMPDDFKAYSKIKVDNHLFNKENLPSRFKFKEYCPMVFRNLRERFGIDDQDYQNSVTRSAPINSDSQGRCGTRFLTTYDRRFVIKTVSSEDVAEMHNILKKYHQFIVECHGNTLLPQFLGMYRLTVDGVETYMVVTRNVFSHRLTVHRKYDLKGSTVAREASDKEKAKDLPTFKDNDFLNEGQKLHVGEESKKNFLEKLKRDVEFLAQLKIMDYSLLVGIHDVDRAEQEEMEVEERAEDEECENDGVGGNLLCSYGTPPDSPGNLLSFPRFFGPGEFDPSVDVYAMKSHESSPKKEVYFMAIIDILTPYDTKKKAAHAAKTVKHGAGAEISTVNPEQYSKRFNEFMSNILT
UniProt O43175: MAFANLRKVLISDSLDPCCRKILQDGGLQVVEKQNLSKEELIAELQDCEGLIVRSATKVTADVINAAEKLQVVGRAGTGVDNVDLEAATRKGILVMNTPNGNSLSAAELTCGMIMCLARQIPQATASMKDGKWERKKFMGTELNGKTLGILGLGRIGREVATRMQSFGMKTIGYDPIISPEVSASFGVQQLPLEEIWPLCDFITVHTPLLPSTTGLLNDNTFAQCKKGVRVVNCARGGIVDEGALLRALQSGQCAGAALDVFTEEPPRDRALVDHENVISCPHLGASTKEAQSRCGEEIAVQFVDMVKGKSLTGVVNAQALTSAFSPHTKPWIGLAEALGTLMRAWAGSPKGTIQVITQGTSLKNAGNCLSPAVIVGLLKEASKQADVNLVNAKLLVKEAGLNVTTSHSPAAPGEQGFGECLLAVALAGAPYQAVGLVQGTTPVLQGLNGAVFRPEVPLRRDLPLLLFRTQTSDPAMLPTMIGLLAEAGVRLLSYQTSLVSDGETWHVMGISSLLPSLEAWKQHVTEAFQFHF
UniProt Q13492: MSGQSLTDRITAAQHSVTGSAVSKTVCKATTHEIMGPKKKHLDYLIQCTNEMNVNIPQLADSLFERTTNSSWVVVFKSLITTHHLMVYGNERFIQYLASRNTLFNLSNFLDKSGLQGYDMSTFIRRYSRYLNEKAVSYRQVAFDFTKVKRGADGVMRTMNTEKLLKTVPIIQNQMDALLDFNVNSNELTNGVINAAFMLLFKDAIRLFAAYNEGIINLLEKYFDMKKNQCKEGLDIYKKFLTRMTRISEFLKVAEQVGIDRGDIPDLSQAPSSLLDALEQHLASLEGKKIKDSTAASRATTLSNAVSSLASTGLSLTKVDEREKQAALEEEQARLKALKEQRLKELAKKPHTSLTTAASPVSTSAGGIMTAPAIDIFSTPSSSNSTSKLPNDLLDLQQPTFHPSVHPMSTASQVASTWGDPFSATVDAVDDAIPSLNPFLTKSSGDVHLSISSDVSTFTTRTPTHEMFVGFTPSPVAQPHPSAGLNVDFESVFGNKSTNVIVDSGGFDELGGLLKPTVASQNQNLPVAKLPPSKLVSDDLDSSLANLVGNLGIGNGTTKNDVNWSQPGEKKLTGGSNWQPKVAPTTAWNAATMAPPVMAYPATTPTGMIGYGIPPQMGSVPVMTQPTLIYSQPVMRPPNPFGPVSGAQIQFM

Compound: COc1ccc(Cn2ccc3ccc(C(=O)NO)cc32)cc1
Assay: dose-dependent thermal stabilisation call (2D-TPP, DLPTP, 10% FDR) (binary (1 = stabilised)); higher = stabilised by the compound
Conditions: system: HL-60 intact cells; concentration range 0.04-10 µM

| Target | dose-dependent thermal stabilisation call |
| --- | --- |
| PRG2 (UniProt P13727) | inactive: 0 |
| PITPNM1 (UniProt O00562) | inactive: 0 |
| PPP1R12A (UniProt O14974) | inactive: 0 |
| PITPNA (UniProt Q00169) | inactive: 0 |
| PIGO (UniProt Q8TEQ8) | inactive: 0 |
| PPIL4 (UniProt Q8WUA2) | inactive: 0 |
| PKN1 (UniProt Q16512) | inactive: 0 |
| PPP3CA (UniProt Q08209) | inactive: 0 |
| PIP4K2C (UniProt Q8TBX8) | inactive: 0 |
| POLE2 (UniProt P56282) | inactive: 0 |
| PNPO (UniProt Q9NVS9) | inactive: 0 |
| PKN2 (UniProt Q16513) | inactive: 0 |
| PRKRA (UniProt O75569) | inactive: 0 |
| POT1 (UniProt Q9NUX5) | inactive: 0 |
| PPIB (UniProt P23284) | inactive: 0 |
| PLXNB1 (UniProt O43157) | inactive: 0 |
| PPP2CA (UniProt P67775) | inactive: 0 |
| POLR3A (UniProt O14802) | inactive: 0 |
| PI4KA (UniProt P42356) | inactive: 0 |

| Target | dose-dependent thermal stabilisation call |
| --- | --- |
| PQLC1 (UniProt Q8N2U9) | inactive: 0 |
| PRCP (UniProt P42785) | inactive: 0 |
| POLR1E (UniProt Q9GZS1) | inactive: 0 |
| PIP4K2B (UniProt P78356) | inactive: 0 |
| PPIL2 (UniProt Q13356) | inactive: 0 |
| PMPCA (UniProt Q10713) | inactive: 0 |
| PHGDH (UniProt O43175) | inactive: 0 |
| PHB (UniProt P35232) | inactive: 0 |
| PODXL2 (UniProt Q9NZ53) | inactive: 0 |
| PICALM (UniProt Q13492) | inactive: 0 |
| PPP3CB (UniProt P16298) | inactive: 0 |
| PPP1R10 (UniProt Q96QC0) | inactive: 0 |
| PPP2R5D (UniProt Q14738) | inactive: 0 |
| POLR2J2 (UniProt Q9GZM3) | inactive: 0 |
| PPP2R5A (UniProt Q15172) | inactive: 0 |
| POLDIP2 (UniProt Q9Y2S7) | inactive: 0 |
| PPCDC (UniProt Q96CD2) | inactive: 0 |
| POP4 (UniProt O95707) | inactive: 0 |

Looked up above:
PHB (UniProt P35232) – dose-dependent thermal stabilisation call: inactive: 0
POP4 (UniProt O95707) – dose-dependent thermal stabilisation call: inactive: 0
